In PMC7764042:
Results are given in words; binding and its absence hold for the method and conditions named.

Protein sequences, listed by entry. Tags and fused reporters are not part of them. Residues count along the entry.
UniProt P23297, residues 2-94: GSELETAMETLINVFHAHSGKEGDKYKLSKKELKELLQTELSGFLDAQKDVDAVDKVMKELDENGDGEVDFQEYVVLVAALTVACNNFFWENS
UniProt P26447: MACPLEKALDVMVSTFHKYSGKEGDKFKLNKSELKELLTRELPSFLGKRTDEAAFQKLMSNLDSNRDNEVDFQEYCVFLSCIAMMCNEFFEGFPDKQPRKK
UniProt P60903: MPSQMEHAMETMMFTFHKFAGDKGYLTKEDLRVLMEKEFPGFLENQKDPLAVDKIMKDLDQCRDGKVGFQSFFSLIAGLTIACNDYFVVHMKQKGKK

What was measured:
[1] = biological target: recombinant human interferon beta-1a (human) (UniProt P01574); assay: condition: only with 1 mM EDTA (Ca^2+-depleted S100), 1 µM; SPR; IFN-β immobilised by amine coupling; Ca^2+-depleted S100 as analyte (1 µM); 25 °C; 10 mM HEPES, 150 mM NaCl, 0.01% TWEEN 20, pH 7.4, 1 mM EDTA; both purified
[2] = biological target: recombinant human interferon beta-1a (human) (UniProt P01574); assay: SPR; IFN-β immobilised by amine coupling; Ca^2+-depleted S100 as analyte (1 µM); 25 °C; 10 mM HEPES, 150 mM NaCl, 0.01% TWEEN 20, pH 7.4, 1 mM EDTA; both purified
[3] = biological target: recombinant human interferon beta-1a (human) (UniProt P01574); assay: SPR; IFN-β immobilised on ProteOn GLH chip by amine coupling; Ca^2+-loaded S100 as analyte (0.25–5 µM S100A1, 0.5–5 µM S100A4/A6, 5 µM other S100); 25 °C; 10 mM HEPES, 150 mM NaCl, 0.01% TWEEN 20, pH 7.4, 1 mM CaCl2; heterogeneous ligand model; both purified

binding [1] | binding [2] | Substance | binding [3]
no binding | – | recombinant human S100A1 (from UniProt P23297 2-94) | –
no binding | – | recombinant human S100A4 (from UniProt P26447 1-101) | –
– | no binding (tested: 1 µM (1 mM EDTA)) | recombinant human S100A10 (from UniProt P60903 1-97) | no binding (tested: 5 µM; Kd not below 10 µM)
